# Percent effect of library compounds

Source: ChEMBL document CHEMBL3988442, “University of Dundee, Small-Polar-MMV Screening Library” (2021).

Mtb cholesterol medium: 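Whole-cell growth test on Mycobacterium tuberculosis, read after 4 days in a medium based on cholesterol and the lipid DPPC; the read-out is not stated. Tested at 50 µM. The record gives no direction; compounds that gave an IC50 in retests scored well above the rest, so higher reads as more growth inhibition. About 69,000 compounds were tested under these conditions; 0.54% (about 370) showed 50% or more at least once.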
Mtb glucose medium: 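Whole-cell growth test on Mycobacterium tuberculosis, read after 3 days in glucose-containing 7H9 medium; the read-out is not stated. Compounds at 50 µM. The record gives no direction; compounds that gave an IC50 in retests scored well above the rest, so higher reads as more growth inhibition. Size under these conditions: about 69,000 compounds, about 760 of them at 50% or above in at least one test.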

Each number is a percent effect as filed. The controls that fix the scale are not given in the record; negative values are as filed. This is an unselected part of the compounds tested. Two or more numbers in one place are separate tests of the same structure; such repeats can differ widely.

SMILES,Mtb cholesterol medium,Mtb glucose medium
CN(C(=O)Cn1nc(-c2ccc(F)cc2)ccc1=O)C1CCS(=O)(=O)C1 (stereo unspecified),8.631,-6.141 & 7.01
CCCn1ncc(CN2CCCC(C(=O)c3ccc(SC)cc3)C2)c1C (stereo unspecified),30.9,21.45 & -10.58
O=C1NCCCc2[nH]c(C3CCN(C(=O)C4CC4)CC3)nc21,-29.74,-46.9
Cc1ccccc1CCNC(=O)CN1CCCC(Cn2cncn2)C1 (stereo unspecified),9.106,-11.74
Fc1ccccc1NCc1nc2n(n1)CCCCC2,-26.35,-34
COc1ccc(Cl)cc1CS(=O)(=O)CC(=O)N(C)Cc1ccccc1F,-4.567,-4.03
Cn1cc(-c2ncnc3c2CCN(C(=O)c2cnccn2)CC3)cn1,-19.73,-10.45
O=C(O)C(F)(F)F.O=C(O)C(F)(F)F.[H][C@@]12CN(Cc3cc[nH]n3)C[C@]1([H])OCCN2CC1CC1,-7.125,7.033
CC(C)c1cc(C(=O)N2CCOC3(CCCC3)C2)no1,10.91,5.501
Cn1nc(C(=O)NCc2ccccn2)c2c1CCS(=O)(=O)C2,0.3407,1.745
O=C(O)c1cc(-c2ccncc2)cc(S(=O)(=O)N2CCCCCC2)c1,-20.78,-10.78
N#CCCN(C(=O)CN1CCCC1c1cccs1)c1ccccc1F (stereo unspecified),15.95,37.81
O=C(O)C(F)(F)F.[H][C@@]12CCN(C(=O)c3cnn(C)c3)[C@@]1([H])CCN2Cc1cccc(C#N)c1,-24.6 & -21.68,-19.78
COCc1nc(NC(C)Cc2cc(C)n[nH]2)c2cnn(C)c2n1 (stereo unspecified),13.91,5.632
CC(=O)c1cccc(NC(=O)CN2CCCCC2C2OCCO2)c1 (stereo unspecified),11.27 & -0.6149,4.736
[H][C@@]12CCC(=O)N(c3ccccc3)[C@]1([H])CCN2C(=O)c1ccco1,-17.07 & -37.03,-28.31
O=C(O)C(F)(F)F.O=C(O)C(F)(F)F.[H][C@@]12CN(Cc3nccs3)C[C@@H](C(=O)NC3CCCC3)[C@]1([H])CCO2,-17.84,-24.25
Cc1nc(C)c(C)c(N2CCC3(CCN(C)C3)C2)n1 (stereo unspecified),7.864,4.893
COc1ccc(N2CCC(N(C)C(C)C(=O)N(C)C)CC2)cc1 (stereo unspecified),-25.32,-34.53
O=C(Nc1ccccc1)C1CCCN(c2cc(-n3cncn3)ncn2)C1 (stereo unspecified),-4.03,1.447 & 43.82
O=C(NCCCO)Nc1ccccc1,-37.62,-10.14
CN(Cc1ccc(CCC(C)(C)O)cc1)Cc1cccnc1,-15.27,6.598
COCCn1ccc(NCc2cc3cc(F)ccc3o2)n1,18.1,-0.5647
NC(=O)C1=NC2=NS(=O)(=O)c3ccccc3N2N1Cc1ccc(Cl)cc1,70.54,53.43
Cc1ccc(C)c(-n2nnnc2SCN2CCCCC2=O)c1,4.026,5.404
O=C(O)C(F)(F)F.OCCOCc1nnn2c1CN(c1ncccn1)CCC2,7.654,-2.323 & 5.283
Cc1cncc(C2CCCN(C(=O)c3scnc3C)C2)n1 (stereo unspecified),-0.07442,31.29
CCc1n[nH]c(C2CN(C(=O)c3ccnc(C4CC4)n3)CCO2)n1 (stereo unspecified),0.6628,20.59
COc1ccc(NC(=O)Cn2nc(C)c(C)cc2=O)cc1Cl,16.9 & 10.39,2.109
COCCN1CCCc2sc(C(=O)NCC3CCCO3)nc21 (stereo unspecified),-50.19,-91.2
Cl.O=C(CCC1CCCC1)NCCn1nc(C2CCNC2)c2nccnc21 (stereo unspecified),-38.77,-29.29
COCC(=O)N1CC[C@@H](OCC2CC2)[C@@H]1Cc1cccnc1.O=C(O)C(F)(F)F,-5.329,-13.54 & -5.881
CC(C)N(C(=O)Cn1nc2n(c1=O)CCCCC2)C1CCC1,5.983,11.88
O=C(Cc1ccccn1)N1CCc2ncnc(NC3CCC3)c2CC1.O=C(O)C(F)(F)F,-11.51,-6.422
O=C(O)C(F)(F)F.O=C(c1ncccn1)N1CCC[C@]2(C[C@@H](Oc3ncccc3F)CO2)C1,-20.01,-44.36
[H][C@]12CC[C@]([H])(CN(C3Cc4ccccc4C3)C1)N(C(=O)N1CCOCC1)C2,3.867,-17.58 & -5.031
O=C(O)C1CN(c2cccc(F)c2)CCO1 (stereo unspecified),-23.06,-38.86
CCC(C)(C)NCc1nc(C(C)(C)NC(=O)OC(C)(C)C)no1,-17.66,-22.33
CCCNC(=O)CCC(=O)Nc1cc2sc(C)nc2cc1OC,-8.555 & -0.2952,4.67
CN(CCOc1ccc(F)cc1)S(=O)(=O)c1cnn(C)c1,-1.377,39.29
Cc1cccc2[nH]c(C3CCN(C(=O)c4ccnn4C)CC3)nc12,-14.79,-24.24
O=C(O)C(F)(F)F.[H][C@]12CCN(C(=O)c3ccco3)[C@@]1([H])CC[C@@H](COCCN1CCCC1)O2,-1.078,17.56
CCOCCC(=O)NCC(C)c1ccsc1 (stereo unspecified),8.359,4.5 & 9.216
O=C(CCn1ccc(=O)[nH]c1=O)N1CCC(Oc2ncccc2Cl)CC1,7.142,0.4473 & -4.701
O=C(NCC(F)(F)F)c1ccc(-n2cncn2)nn1,2.192,9.041
CCOC(C)c1noc(CN2CCN(c3nnc(C)s3)CC2)n1 (stereo unspecified),23.61,20.43
CC(=O)N(C)C1CCN(C(=O)NCCc2cc(F)ccc2F)CC1,14.33,14.55
NC(=O)CN1CCCC(c2nccnc2Oc2cccc(F)c2)C1 (stereo unspecified),-8.429,-8.342
CN1CC(=O)N(c2ccccc2)CC12CCN(Cc1nccs1)C2.O=C(O)C(F)(F)F.O=C(O)C(F)(F)F (stereo unspecified),-9.753,-38.14
Cc1cccc(CC(=O)N2CCOCC2c2c(C)n[nH]c2C)c1 (stereo unspecified),8.446,6.345
CC(C)c1nn(CC(=O)N2CCCCC2)c(=O)c2c1cnn2C(C)(C)C,-28.01,-19.94 & -0.1218
O=C1CN(C(=O)[C@H]2CC[C@]3(CC2)CNC(=O)c2ccccc2O3)CCN1,-4.384,-11.86
CCC(C)N1CCc2nc(N3CCCC3)nc(NC(C)C)c2C1 (stereo unspecified),-19.74,-12.21
CC(C)(O)CCc1cccc(C(=O)N2CCC[C@H]2CN2CCCC2)c1,-30.25 & -6.604,-16.27
COc1ccccc1OCc1nc2cc3c(cc2c(=O)o1)OCCCO3,-14.56,-19.48 & -0.1834
O=C(O)C(F)(F)F.[H][C@@]12CN(C(=O)C(C)C)CCC[C@]1(C(=O)N(C)C)CN(c1ccccn1)C2,-40.06,-16.55
Cc1cc(CN(C)C(=O)NCc2ccnc(N(C)C)c2)no1,5.325,28
CC1CCN(S(=O)(=O)N2CCC(Oc3cnccn3)CC2)CC1,2.816,-3.879